This is one part of the list.
Experiments:
Test in all cases: log2 fold change, soluble protein after heating vs DMSO (PISA); higher = thermal stabilisation; K562 cells, 10 uM, 30 min; active = over 0.2 and 3.5 SD of the protein, either way, in both replicates (recomputed)
[1] = compound: CS(=O)(=O)c1ccc(-c2cnc(N)c(C(=O)Nc3ccccc3)n2)cc1
Summary of the method: (§1)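 Soluble protein was defined as the supernatant after 21,000xg for 90 min. It came from K562 cells at 2×10^6 cells/mL given 10 μM compound for 30 min, heated in aliquots for 3 min across 48°C-58°C, pooled, and extracted in PBS with 0.5% NP-40 at 4°C, and was quantified by TMTpro 16plex LC-MS/MS with equalised channel sums. Thermal stability against control samples, from duplicates, is reported as log2 fold change.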

The chains behind the UniProt entries cited, without tags or fusion partners. Where a name states a change or a piece, a line headed by the entry shows the natural chain unless it says otherwise.
UniProt P67775, whole entry, looked up: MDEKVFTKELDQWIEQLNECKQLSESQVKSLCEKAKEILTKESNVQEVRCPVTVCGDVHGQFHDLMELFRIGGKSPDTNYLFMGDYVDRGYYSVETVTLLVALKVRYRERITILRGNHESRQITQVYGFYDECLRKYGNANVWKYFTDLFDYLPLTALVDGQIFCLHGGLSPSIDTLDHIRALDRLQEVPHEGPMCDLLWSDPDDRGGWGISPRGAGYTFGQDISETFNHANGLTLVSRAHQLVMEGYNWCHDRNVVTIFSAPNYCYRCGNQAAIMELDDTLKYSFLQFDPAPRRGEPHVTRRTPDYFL
UniProt Q8TAE6: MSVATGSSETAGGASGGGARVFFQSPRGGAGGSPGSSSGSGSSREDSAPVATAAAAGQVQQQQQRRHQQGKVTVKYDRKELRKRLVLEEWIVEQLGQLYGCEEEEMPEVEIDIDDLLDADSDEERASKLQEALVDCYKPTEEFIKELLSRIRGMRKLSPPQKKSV
UniProt P48634: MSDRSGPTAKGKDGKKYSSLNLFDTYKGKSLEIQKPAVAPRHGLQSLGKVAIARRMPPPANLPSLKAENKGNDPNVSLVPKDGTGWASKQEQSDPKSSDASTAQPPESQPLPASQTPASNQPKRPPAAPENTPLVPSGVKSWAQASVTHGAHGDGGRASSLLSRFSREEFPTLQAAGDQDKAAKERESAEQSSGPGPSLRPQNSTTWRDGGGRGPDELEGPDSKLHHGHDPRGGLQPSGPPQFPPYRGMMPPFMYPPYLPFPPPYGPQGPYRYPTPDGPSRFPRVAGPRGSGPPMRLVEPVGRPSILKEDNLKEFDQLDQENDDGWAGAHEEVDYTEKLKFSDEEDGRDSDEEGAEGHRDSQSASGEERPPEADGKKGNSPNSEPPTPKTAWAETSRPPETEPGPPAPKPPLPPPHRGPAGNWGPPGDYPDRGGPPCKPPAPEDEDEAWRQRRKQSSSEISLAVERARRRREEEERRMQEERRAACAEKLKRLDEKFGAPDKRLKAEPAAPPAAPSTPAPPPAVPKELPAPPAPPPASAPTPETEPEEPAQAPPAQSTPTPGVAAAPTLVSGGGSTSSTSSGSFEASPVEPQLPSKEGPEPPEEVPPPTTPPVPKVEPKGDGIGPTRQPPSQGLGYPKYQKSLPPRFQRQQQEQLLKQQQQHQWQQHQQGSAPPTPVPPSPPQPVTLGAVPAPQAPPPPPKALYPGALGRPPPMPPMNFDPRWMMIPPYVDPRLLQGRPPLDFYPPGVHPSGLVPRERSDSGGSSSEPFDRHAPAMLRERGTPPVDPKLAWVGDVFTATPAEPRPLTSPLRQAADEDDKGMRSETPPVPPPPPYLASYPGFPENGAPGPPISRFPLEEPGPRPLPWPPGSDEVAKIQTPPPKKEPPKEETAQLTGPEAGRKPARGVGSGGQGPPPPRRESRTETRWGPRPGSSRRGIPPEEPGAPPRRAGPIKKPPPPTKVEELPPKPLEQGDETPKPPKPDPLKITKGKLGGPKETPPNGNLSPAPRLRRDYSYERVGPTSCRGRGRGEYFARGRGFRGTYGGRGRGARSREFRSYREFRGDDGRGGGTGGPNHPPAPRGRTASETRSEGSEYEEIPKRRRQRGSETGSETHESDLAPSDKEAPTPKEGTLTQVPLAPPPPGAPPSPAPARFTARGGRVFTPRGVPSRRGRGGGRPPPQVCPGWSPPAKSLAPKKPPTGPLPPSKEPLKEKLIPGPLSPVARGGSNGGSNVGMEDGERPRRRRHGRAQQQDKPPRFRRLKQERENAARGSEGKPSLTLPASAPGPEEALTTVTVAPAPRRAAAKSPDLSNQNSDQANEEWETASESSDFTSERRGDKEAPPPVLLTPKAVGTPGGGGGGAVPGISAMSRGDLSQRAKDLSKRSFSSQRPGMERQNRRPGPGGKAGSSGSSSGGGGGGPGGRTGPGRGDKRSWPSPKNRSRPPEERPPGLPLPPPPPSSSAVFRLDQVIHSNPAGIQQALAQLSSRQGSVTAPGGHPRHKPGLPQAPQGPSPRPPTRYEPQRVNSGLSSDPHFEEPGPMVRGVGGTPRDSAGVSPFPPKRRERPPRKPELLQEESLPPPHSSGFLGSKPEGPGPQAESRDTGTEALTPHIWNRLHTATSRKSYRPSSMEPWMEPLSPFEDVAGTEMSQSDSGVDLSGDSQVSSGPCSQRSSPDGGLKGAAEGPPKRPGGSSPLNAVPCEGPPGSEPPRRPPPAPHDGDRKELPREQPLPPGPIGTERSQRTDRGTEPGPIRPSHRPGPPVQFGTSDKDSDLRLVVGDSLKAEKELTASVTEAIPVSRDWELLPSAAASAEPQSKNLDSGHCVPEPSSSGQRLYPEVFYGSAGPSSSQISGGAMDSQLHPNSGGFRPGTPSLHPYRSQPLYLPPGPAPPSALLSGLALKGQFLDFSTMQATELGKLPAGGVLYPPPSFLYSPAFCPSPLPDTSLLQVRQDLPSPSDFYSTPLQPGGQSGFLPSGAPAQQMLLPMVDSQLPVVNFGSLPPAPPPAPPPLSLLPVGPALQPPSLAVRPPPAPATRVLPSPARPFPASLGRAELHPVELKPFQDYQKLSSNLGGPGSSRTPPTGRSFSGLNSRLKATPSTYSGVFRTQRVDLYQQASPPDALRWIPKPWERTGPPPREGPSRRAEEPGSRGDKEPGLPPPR
UniProt O75170: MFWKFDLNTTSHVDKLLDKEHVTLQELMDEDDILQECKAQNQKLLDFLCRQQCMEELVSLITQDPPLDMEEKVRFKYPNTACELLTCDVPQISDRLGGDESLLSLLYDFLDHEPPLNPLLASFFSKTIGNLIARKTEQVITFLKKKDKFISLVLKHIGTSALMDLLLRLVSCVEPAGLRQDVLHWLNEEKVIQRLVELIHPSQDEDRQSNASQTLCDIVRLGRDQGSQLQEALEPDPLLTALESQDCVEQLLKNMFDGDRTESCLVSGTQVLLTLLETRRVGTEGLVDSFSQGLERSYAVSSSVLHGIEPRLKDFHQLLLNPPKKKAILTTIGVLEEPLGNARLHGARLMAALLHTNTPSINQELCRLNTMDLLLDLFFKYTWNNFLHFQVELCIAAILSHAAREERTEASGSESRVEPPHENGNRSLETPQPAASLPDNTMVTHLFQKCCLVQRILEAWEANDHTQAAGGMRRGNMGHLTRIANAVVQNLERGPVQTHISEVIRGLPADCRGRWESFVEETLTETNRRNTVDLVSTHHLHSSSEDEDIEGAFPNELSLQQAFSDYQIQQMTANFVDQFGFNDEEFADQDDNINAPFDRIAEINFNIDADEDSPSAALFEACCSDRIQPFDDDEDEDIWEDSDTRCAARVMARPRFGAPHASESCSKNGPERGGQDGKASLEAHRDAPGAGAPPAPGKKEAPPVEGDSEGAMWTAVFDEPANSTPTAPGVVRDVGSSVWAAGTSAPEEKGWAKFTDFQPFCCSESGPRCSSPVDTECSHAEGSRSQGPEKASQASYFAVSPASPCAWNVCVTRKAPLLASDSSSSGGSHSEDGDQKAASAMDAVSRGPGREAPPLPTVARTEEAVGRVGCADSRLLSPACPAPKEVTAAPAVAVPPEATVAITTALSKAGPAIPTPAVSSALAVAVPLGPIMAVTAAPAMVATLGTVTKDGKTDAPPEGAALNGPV
UniProt O43172: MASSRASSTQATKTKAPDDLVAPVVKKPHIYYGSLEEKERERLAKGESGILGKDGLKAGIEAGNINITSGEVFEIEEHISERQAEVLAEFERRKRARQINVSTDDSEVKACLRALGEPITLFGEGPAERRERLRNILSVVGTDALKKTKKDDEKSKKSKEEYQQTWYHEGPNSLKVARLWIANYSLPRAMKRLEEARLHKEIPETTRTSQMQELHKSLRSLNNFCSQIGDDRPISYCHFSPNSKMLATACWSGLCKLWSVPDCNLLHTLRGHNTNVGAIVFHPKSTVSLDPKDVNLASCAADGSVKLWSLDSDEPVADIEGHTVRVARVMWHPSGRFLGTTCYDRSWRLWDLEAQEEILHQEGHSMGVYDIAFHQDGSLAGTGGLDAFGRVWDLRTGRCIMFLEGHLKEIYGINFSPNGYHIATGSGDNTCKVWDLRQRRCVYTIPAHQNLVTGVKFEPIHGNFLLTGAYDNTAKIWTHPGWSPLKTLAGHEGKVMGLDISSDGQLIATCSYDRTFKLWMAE
UniProt P60510: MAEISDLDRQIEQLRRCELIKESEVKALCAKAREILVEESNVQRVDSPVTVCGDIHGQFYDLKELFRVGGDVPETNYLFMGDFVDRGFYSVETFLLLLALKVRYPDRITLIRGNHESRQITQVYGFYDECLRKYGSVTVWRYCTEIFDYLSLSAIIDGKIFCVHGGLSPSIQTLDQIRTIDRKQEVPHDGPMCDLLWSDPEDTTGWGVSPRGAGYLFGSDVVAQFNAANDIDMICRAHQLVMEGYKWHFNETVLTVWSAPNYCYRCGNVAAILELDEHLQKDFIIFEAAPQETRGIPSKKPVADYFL
UniProt Q9ULR3: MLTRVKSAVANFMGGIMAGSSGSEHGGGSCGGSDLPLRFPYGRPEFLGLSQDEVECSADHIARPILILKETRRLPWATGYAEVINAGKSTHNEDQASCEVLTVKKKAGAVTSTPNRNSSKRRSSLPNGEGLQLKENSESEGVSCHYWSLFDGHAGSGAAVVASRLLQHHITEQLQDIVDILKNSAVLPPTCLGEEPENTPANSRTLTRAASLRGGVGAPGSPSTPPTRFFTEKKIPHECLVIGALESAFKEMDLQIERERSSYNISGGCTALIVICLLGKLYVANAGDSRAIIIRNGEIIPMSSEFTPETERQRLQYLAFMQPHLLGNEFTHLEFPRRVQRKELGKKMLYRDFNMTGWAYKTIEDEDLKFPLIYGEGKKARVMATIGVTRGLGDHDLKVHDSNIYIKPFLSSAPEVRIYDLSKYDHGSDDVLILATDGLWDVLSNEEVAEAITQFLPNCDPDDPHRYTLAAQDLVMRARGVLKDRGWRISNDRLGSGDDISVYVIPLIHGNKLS
UniProt Q6NYC8: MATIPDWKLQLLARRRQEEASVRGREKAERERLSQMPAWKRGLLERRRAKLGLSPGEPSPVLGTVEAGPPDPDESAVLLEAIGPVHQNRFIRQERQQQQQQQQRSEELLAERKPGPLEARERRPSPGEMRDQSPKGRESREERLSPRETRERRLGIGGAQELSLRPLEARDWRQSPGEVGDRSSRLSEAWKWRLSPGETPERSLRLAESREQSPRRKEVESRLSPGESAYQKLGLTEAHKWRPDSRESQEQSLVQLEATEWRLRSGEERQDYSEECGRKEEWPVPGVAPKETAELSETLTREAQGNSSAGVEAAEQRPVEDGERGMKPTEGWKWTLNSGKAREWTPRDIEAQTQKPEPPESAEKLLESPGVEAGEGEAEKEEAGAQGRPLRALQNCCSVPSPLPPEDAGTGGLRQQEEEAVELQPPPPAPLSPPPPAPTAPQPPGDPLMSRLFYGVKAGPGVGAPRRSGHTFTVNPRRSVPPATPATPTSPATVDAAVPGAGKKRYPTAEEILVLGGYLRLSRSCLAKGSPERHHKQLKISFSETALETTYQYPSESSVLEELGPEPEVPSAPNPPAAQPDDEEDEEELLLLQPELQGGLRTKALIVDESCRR
UniProt P30044: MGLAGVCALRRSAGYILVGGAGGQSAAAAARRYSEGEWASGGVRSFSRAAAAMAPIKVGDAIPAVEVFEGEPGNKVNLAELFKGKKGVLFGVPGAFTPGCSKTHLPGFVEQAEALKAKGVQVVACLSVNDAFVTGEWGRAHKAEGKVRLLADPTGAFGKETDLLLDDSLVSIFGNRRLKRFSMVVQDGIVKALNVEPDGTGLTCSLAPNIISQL
UniProt P60891: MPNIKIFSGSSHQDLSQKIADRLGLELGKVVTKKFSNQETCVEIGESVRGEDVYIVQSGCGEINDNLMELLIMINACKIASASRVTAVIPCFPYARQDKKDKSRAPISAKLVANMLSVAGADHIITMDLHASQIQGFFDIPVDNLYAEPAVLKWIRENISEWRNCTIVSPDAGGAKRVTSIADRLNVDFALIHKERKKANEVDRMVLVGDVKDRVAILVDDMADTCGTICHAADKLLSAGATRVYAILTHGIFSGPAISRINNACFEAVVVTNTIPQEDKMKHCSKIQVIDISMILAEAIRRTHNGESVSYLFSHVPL
UniProt Q99873, whole entry, looked up: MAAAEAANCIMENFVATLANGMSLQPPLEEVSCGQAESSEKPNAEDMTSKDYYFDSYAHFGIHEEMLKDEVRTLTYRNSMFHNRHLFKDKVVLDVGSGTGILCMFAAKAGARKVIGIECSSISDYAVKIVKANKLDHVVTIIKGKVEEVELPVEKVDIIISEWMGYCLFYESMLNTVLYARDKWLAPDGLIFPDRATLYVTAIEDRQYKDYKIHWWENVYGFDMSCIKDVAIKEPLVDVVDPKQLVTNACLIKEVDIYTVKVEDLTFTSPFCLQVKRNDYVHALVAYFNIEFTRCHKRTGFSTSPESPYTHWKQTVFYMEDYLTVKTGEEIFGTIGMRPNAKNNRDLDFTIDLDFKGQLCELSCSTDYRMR

crizotinib = compound: C[C@@H](Oc1cc(-c2cnn(C3CCNCC3)c2)cnc1N)c1c(Cl)ccc(F)c1Cl [crizotinib]
Summary of the method: as §1

[2] = compound: C[C@@H]1COCCN1C2=NC(=NC(=C2)C3(CC3)S(=O)(=O)C)C4=C5C=CNC5=CC=C4
Summary of the method: as §1

[3] = compound: C[C@H](C1=CC=C(C=C1)C(=O)NC2=C3C=CNC3=NC=C2)N
Summary of the method: as §1

duvelisib = compound: C[C@H](Nc1ncnc2nc[nH]c12)c1cc2cccc(Cl)c2c(=O)n1-c1ccccc1 [duvelisib]
Summary of the method: as §1

gandotinib = compound: Cc1cc(Nc2cc(CN3CCOCC3)c3nc(C)c(Cc4ccc(Cl)cc4F)n3n2)n[nH]1 [gandotinib]
Summary of the method: as §1

tozasertib = compound: Cc1cc(Nc2cc(N3CCN(C)CC3)nc(Sc3ccc(NC(=O)C4CC4)cc3)n2)n[nH]1 [tozasertib]
Summary of the method: as §1

[4] = compound: Cc1cc(SCc2sc(-c3ccc(C(F)(F)F)cc3)nc2C)ccc1OCC(=O)O
Summary of the method: as §1

doramapimod = compound: Cc1ccc(-n2nc(C(C)(C)C)cc2NC(=O)Nc2ccc(OCCN3CCOCC3)c3ccccc23)cc1 [doramapimod]
Summary of the method: as §1

ispinesib = compound: Cc1ccc(C(=O)N(CCCN)[C@@H](c2nc3cc(Cl)ccc3c(=O)n2Cc2ccccc2)C(C)C)cc1 [ispinesib]
Summary of the method: as §1

bafetinib = compound: Cc1ccc(NC(=O)c2ccc(CN3CC[C@H](N(C)C)C3)c(C(F)(F)F)c2)cc1Nc1nccc(-c2cncnc2)n1 [bafetinib]
Summary of the method: as §1

[5] = compound: Cc1cccc(CC(=O)N2CCc3c2ccc(-c2cn(C)c4ncnc(N)c24)c3F)n1
Summary of the method: as §1

nilotinib = compound: Cc1cn(-c2cc(NC(=O)c3ccc(C)c(Nc4nccc(-c5cccnc5)n4)c3)cc(C(F)(F)F)c2)cn1 [nilotinib]
Summary of the method: as §1

[6] = compound: Cc1nc(Nc2n[nH]c3c2CN(C(=O)N[C@H](CN(C)C)c2ccccc2)C3(C)C)c2sccc2n1
Summary of the method: as §1

dasatinib = compound: Cc1nc(Nc2ncc(C(=O)Nc3c(C)cccc3Cl)s2)cc(N2CCN(CCO)CC2)n1 [dasatinib]
Summary of the method: as §1

[7] = compound: Cc1ncc(-c2ccnc(Nc3ccc(S(C)(=O)=O)cc3)n2)n1C(C)C
Summary of the method: as §1

[8] = compound: Cn1cc(-c2ccc3c(c2)CCN3C(=O)Cc2cccc(C(F)(F)F)c2)c2c(N)ncnc21
Summary of the method: as §1

[9] = compound: Cn1cc(-c2ccc3nnc(C(F)(F)c4ccc5ncccc5c4)n3n2)cn1
Summary of the method: as §1

tipifarnib = compound: Cn1cncc1[C@@](N)(c1ccc(Cl)cc1)c1ccc2c(c1)c(-c1cccc(Cl)c1)cc(=O)n2C [tipifarnib]
Summary of the method: as §1

mubritinib = compound: FC(F)(F)c1ccc(/C=C/c2nc(COc3ccc(CCCCn4ccnn4)cc3)co2)cc1 [mubritinib]
Summary of the method: as §1

Measured: log2 fold change

PRRC2C isoform 7 (UniProt Q9Y520)
inactive: [1] -0.034 | crizotinib 0.051 | [2] -0.284 | [3] 0.228 | duvelisib -0.109 | gandotinib 0.236 | tozasertib -0.017 | [4] -0.018 | doramapimod 0.113 | ispinesib -0.062 | bafetinib 0.107 | [5] -0.01 | nilotinib 0.02 | [6] 0.097 | dasatinib 0.151 | [7] -0.003 | [8] -0.176 | [9] -0.102 | tipifarnib 0.109 | mubritinib -0.073

PPP2CA (UniProt P67775)
inactive: [1] 0.015 | crizotinib 0.001 | [2] 0.009 | [3] -0.11 | duvelisib -0.017 | gandotinib -0.027 | tozasertib 0.025 | [4] -0.027 | doramapimod -0.07 | ispinesib 0.065 | bafetinib 0.035 | [5] -0.007 | nilotinib -0.016 | [6] 0.011 | dasatinib 0.029 | [7] -0.011 | [8] -0.022 | [9] 0 | tipifarnib -0.036 | mubritinib -0.007

PPP1R14C (UniProt Q8TAE6)
inactive: [1] 0.036 | crizotinib 0.022 | [2] -0.128 | [3] -0.059 | duvelisib 0.153 | gandotinib -0.065 | tozasertib 0.06 | [4] -0.173 | doramapimod 0.005 | ispinesib 0.244 | bafetinib 0.022 | [5] -0.153 | nilotinib 0.028 | [6] 0.077 | dasatinib 0.174 | [7] -0.047 | [8] -0.071 | [9] -0.246 | tipifarnib -0.008 | mubritinib 0

PRMT9 (UniProt Q6P2P2)
inactive: [1] 0.197 | crizotinib -0.07 | [2] 0.474 | [3] -0.014 | duvelisib 0.013 | gandotinib -0.154 | tozasertib -0.024 | [4] -0.012 | doramapimod 0.01 | ispinesib 0.076 | bafetinib -0.087 | [5] -0.069 | nilotinib -0.107 | [6] 0.036 | dasatinib -0.025 | [7] -0.011 | [8] 0.011 | [9] 0.004 | tipifarnib -0.08 | mubritinib -0.016

PRKCSH (UniProt P14314)
inactive: [1] -0.034 | crizotinib 0.007 | [2] -0.058 | [3] -0.054 | duvelisib -0.072 | gandotinib -0.093 | tozasertib 0.029 | [4] 0.036 | doramapimod -0.013 | ispinesib 0.06 | bafetinib 0.017 | [5] -0.057 | nilotinib -0.006 | [6] -0.012 | dasatinib -0.005 | [7] -0.024 | [8] -0.005 | [9] -0.033 | tipifarnib -0.01 | mubritinib -0.03

PRRC2A (UniProt P48634)
inactive: [1] -0.029 | crizotinib 0.042 | [2] -0.259 | [3] 0.176 | duvelisib -0.077 | gandotinib 0.208 | tozasertib -0.041 | [4] -0.025 | doramapimod 0.096 | ispinesib -0.045 | bafetinib 0.099 | [5] -0.024 | nilotinib 0.049 | [6] 0.043 | dasatinib 0.085 | [7] -0.028 | [8] -0.088 | [9] -0.032 | tipifarnib 0.101 | mubritinib -0.068

PPP6R2 isoform 5 (UniProt O75170)
inactive: [1] -0.02 | crizotinib 0.019 | [2] 0.057 | [3] -0.014 | duvelisib 0.016 | gandotinib -0.033 | tozasertib 0.014 | [4] 0.033 | doramapimod -0.012 | ispinesib 0.086 | bafetinib 0.047 | [5] -0.028 | nilotinib 0.033 | [6] -0.012 | dasatinib -0.044 | [7] -0.018 | [8] 0 | [9] 0.013 | tipifarnib -0.013 | mubritinib 0.026

PRPF4 (UniProt O43172)
inactive: [1] -0.014 | crizotinib -0.04 | [2] 0.044 | [3] -0.02 | duvelisib 0.009 | gandotinib -0.052 | tozasertib 0.018 | [4] 0.029 | doramapimod -0.035 | ispinesib 0.001 | bafetinib 0.004 | [5] 0.049 | nilotinib 0.009 | [6] -0.098 | dasatinib -0.078 | [7] -0.103 | [8] 0.015 | [9] -0.008 | tipifarnib -0.028 | mubritinib 0.029

PPP3CB isoform 4 (UniProt P16298)
inactive: [1] -0.005 | crizotinib 0.014 | [2] 0.06 | [3] 0.061 | duvelisib 0.024 | gandotinib -0.155 | tozasertib -0.011 | [4] -0.021 | doramapimod 0.031 | ispinesib -0.005 | bafetinib -0.064 | [5] -0.035 | nilotinib -0.122 | [6] 0.011 | dasatinib -0.083 | [7] -0.055 | [8] 0.021 | [9] 0.017 | tipifarnib 0.017 | mubritinib 0.051

PPP4C (UniProt P60510)
inactive: [1] 0.014 | crizotinib -0.012 | [2] 0.079 | [3] -0.046 | duvelisib 0.057 | gandotinib -0.074 | tozasertib 0.024 | [4] -0.05 | doramapimod 0.007 | ispinesib 0.018 | bafetinib -0.068 | [5] 0.056 | nilotinib 0.002 | [6] 0.02 | dasatinib 0.06 | [7] -0.029 | [8] -0.004 | [9] 0.013 | tipifarnib 0.075 | mubritinib 0.112

PPM1H (UniProt Q9ULR3)
inactive: [1] 0.007 | crizotinib 0.037 | [2] 0.124 | [3] -0.072 | duvelisib 0.046 | gandotinib -0.03 | tozasertib -0.021 | [4] -0.057 | doramapimod 0.017 | ispinesib 0.041 | bafetinib -0.024 | [5] -0.036 | nilotinib -0.017 | [6] -0.011 | dasatinib 0.024 | [7] 0.015 | [8] 0.042 | [9] 0.028 | tipifarnib -0.026 | mubritinib 0.03

PPP1R18 (UniProt Q6NYC8)
inactive: [1] 0 | crizotinib 0.022 | [2] 0.11 | [3] -0.052 | duvelisib 0.004 | gandotinib -0.081 | tozasertib 0.028 | [4] 0.019 | doramapimod 0.041 | ispinesib 0.02 | bafetinib -0.067 | [5] -0.009 | nilotinib -0.05 | [6] -0.025 | dasatinib 0.013 | [7] -0.063 | [8] 0.005 | [9] 0.003 | tipifarnib -0.008 | mubritinib 0.046

PRDX5 (UniProt P30044)
inactive: [1] 0.015 | crizotinib 0.057 | [2] 0.067 | [3] -0.063 | duvelisib 0.045 | gandotinib -0.02 | tozasertib 0 | [4] -0.041 | doramapimod -0.003 | ispinesib 0.014 | bafetinib -0.067 | [5] -0.028 | nilotinib 0.036 | [6] 0.016 | dasatinib 0.039 | [7] -0.007 | [8] 0.045 | [9] 0.08 | tipifarnib -0.009 | mubritinib 0.022

PRPS1 (UniProt P60891)
inactive: [1] 0.003 | crizotinib 0.016 | [2] 0.034 | [3] 0.014 | duvelisib 0.001 | gandotinib -0.022 | tozasertib 0.014 | [4] 0.007 | doramapimod 0.044 | ispinesib 0.028 | bafetinib 0.035 | [5] -0.024 | nilotinib -0.025 | [6] 0.03 | dasatinib 0.026 | [7] 0.031 | [8] -0.033 | [9] 0.023 | tipifarnib -0.051 | mubritinib 0.03

Taken from above (2 entries):
PRMT9 (UniProt Q6P2P2)
inactive: [1] 0.197 | crizotinib -0.07 | [2] 0.474 | [3] -0.014 | duvelisib 0.013 | gandotinib -0.154 | tozasertib -0.024 | [4] -0.012 | doramapimod 0.01 | ispinesib 0.076 | bafetinib -0.087 | [5] -0.069 | nilotinib -0.107 | [6] 0.036 | dasatinib -0.025 | [7] -0.011 | [8] 0.011 | [9] 0.004 | tipifarnib -0.08 | mubritinib -0.016

PRKCSH (UniProt P14314)
inactive: [1] -0.034 | crizotinib 0.007 | [2] -0.058 | [3] -0.054 | duvelisib -0.072 | gandotinib -0.093 | tozasertib 0.029 | [4] 0.036 | doramapimod -0.013 | ispinesib 0.06 | bafetinib 0.017 | [5] -0.057 | nilotinib -0.006 | [6] -0.012 | dasatinib -0.005 | [7] -0.024 | [8] -0.005 | [9] -0.033 | tipifarnib -0.01 | mubritinib -0.03

Additional entries follow.

PRMT1 (UniProt Q99873)
inactive: [1] 0.022 | crizotinib -0.042 | [2] 0.013 | [3] -0.103 | duvelisib 0.003 | gandotinib -0.074 | tozasertib -0.04 | [4] 0.024 | doramapimod -0.003 | ispinesib 0.059 | bafetinib -0.017 | [5] 0.08 | nilotinib -0.037 | [6] 0.007 | dasatinib -0.055 | [7] 0.007 | [8] 0.073 | [9] -0.052 | tipifarnib -0.08 | mubritinib 0.051

— the supplement of paper PMC10849652
